Source: PubChem BioAssay AID743454 (Peter MacCallum Cancer Centre, 2014)

Test: 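Knock-downs lowering viability or raising caspase 3/7 activity in vorinostat-treated resistant cells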 (primary screen)
Cells: human HCT116-VR colon cancer cells, selected for vorinostat resistance
Reagent: siRNA pool against human genes, 40 nM siRNA pool
Duration: vorinostat for 24 h, read-out about 72 h after transfection
Challenge: vorinostat at 2.5 µM final
Measurement: 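Two measures, CellTiter-Fluor viability and luminescent caspase 3/7 activity, each as fold change against same-plate mock wells, mean of duplicates, then screen-wide robust z-score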
Reading the numbers: viability robust z-score: higher = more viable cells than screen typical; caspase robust z-score: higher = more caspase 3/7 activity than screen typical
Active means: 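a knock-down is a hit when classed RV1 or RV2 for lowered viability, or CA1 or CA2 for caspase activation; those lethal without drug were dropped; hits were retested singly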
The whole screen tested about 18,000 reagents; shown is a random part of them. In the full data, 450 (2.5%) are marked active. 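Single biological run; no consistent viability z cut-off exists, so the class columns, not z-scores, define the calls.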 Unmarked entries are inactive. Reagent sequences are not shown.

| target gene | viability hit class | caspase hit class | viability robust z-score | caspase robust z-score |
| --- | --- | --- | --- | --- |
| MSL2 | no change | no change | -0.9 | 2.08 |
| PRKD2 | no change | no change | 0.22 | 0.6 |
| TUBB2A | no change | no change | -2.68 | 2.16 |
| LCLAT1 | no change | no change | 0.6 | -0.72 |
| CENPK | no change | no change | -0.26 | 1.21 |
| FNBP1L | no change | no change | -1.13 | -1.17 |
| STK4 | no change | no change | 1.09 | -0.64 |
| AACS | no change | no change | -1.98 | 0.29 |
| HRCT1 | no change | no change | 1.46 | 0.82 |
| LMO7 | no change | no change | 0.15 | -0.46 |
| STARD4 | no change | no change | 0.08 | 3.66 |
| TMPO | no change | no change | -0.31 | 0.27 |
| SEZ6L | no change | no change | -0.02 | 1.71 |
| PLA2G4D | no change | no change | 0.05 | -0.6 |
| ST20-AS1 | no change | no change | 1.58 | -0.46 |
| AGPAT4 | no change | no change | -0.82 | -1.18 |
| VMP1 | no change (active) | CA1 (caspase activation) | -1.93 | 6.26 |
| IGF2BP2-AS1 | no change | no change | -0.42 | 1.58 |
| GOT2 | no change | no change | 0.68 | -0.59 |
| GTF3C2 | no change | no change | 0.11 | 1.82 |
| NTS | no change | no change | 0.76 | -0.01 |
| CNPY3 | no change | no change | -1.46 | -0.92 |
| MYO1A | no change | no change | -0.08 | 1.62 |
| RBM39 | no change | no change | -2.78 | 4.91 |
| SLC9B2 | no change | no change | -0.37 | 1.26 |
| OR51G1 | no change | no change | -0.39 | 0.36 |
| ZNF567 | no change | no change | -0.58 | 0.84 |
| SPRN | no change | no change | 0.26 | 0.12 |
| RRH | no change | no change | 0.24 | -0.03 |
| COLQ | no change | no change | -0.51 | -0.43 |
| RNF215 | no change (active) | CA2 (caspase activation) | -4.79 | 6.2 |
| ELOVL6 | no change | no change | -0.08 | -0.34 |
| KSR2 | no change | no change | -0.6 | -0.18 |
| SLC9A5 | no change | no change | 0.62 | 0.66 |
| DAOA | no change | no change | 0.64 | -0.66 |
| TEX44 | no change | no change | -0.84 | 0.77 |
| UNC5B | no change | no change | 1.15 | -0.22 |
| ADAMTS2 | no change | no change | -0.42 | 0.2 |
| C11orf87 | no change | no change | 0.1 | 3.33 |
